The supplement of paper PMC8728848
This is one part of the list.

Tests used:
Experiment in all cases: glycan array binding signal (z-score within array); higher = stronger binding
Settings in all cases: glycan notation: IUPAC condensed, linker removed
Neu5Ac(a2-8)Neu5Ac = molecular target: Neu5Ac(a2-8)Neu5Ac
In short: (§1)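 The Consortium for Functional Glycomics database supplied 3228 glycan arrays, of which those lacking an available protein sequence were dropped. The binding signal, a within-array Z-score, was averaged across arrays of the same protein sequence and across linkers. Negative scores can be read as non-binding.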

[1] = molecular target: Neu5Ac(a2-8)Neu5Ac(a2-3)Gal(b1-3)GalNAc(b1-4)[Neu5Ac(a2-3)]Gal(b1-4)Glc
In short: as §1

[2] = molecular target: Neu5Ac(a2-8)Neu5Ac(a2-3)Gal(b1-3)GalNAc(b1-4)[Neu5Ac(a2-8)Neu5Ac(a2-3)]Gal(b1-4)Glc
In short: as §1

[3] = molecular target: Neu5Ac(a2-8)Neu5Ac(a2-3)Gal(b1-4)Glc
In short: as §1

[4] = molecular target: Neu5Ac(a2-8)Neu5Ac(a2-3)Gal(b1-4)GlcNAc
In short: as §1

[5] = molecular target: Neu5Ac(a2-8)Neu5Ac(a2-3)[Gal(b1-3)GalNAc(b1-4)]Gal(b1-4)Glc
In short: as §1

[6] = molecular target: Neu5Ac(a2-8)Neu5Ac(a2-3)[GalNAc(b1-4)]Gal(b1-4)Glc
In short: as §1

[7] = molecular target: Neu5Ac(a2-8)Neu5Ac(a2-8)Neu5Ac
In short: as §1

[8] = molecular target: Neu5Ac(a2-8)Neu5Ac(a2-8)Neu5Ac(a2-3)Gal(b1-4)Glc
In short: as §1

[9] = molecular target: Neu5Ac(a2-8)Neu5Ac(a2-8)Neu5Ac(a2-3)[Gal(b1-3)GalNAc(b1-4)]Gal(b1-4)Glc
In short: as §1

[10] = molecular target: Neu5Ac(a2-8)Neu5Ac(a2-8)Neu5Ac(a2-3)[GalNAc(b1-4)]Gal(b1-4)Glc
In short: as §1

[11] = molecular target: Neu5Ac(a2-8)Neu5Ac(a2-8)Neu5Ac(a2-8)Neu5Ac(a2-3)[GalNAc(b1-4)]Gal(b1-4)Glc
In short: as §1

[12] = molecular target: Neu5Ac(a2-8)Neu5Gc(a2-3)Gal(b1-4)GlcNAc
In short: as §1

[13] = molecular target: Neu5Ac(b2-6)Gal(b1-4)GlcNAc
In short: as §1

Neu5Ac(b2-6)GalNAc = molecular target: Neu5Ac(b2-6)GalNAc
In short: as §1

[14] = molecular target: Neu5Ac9Ac(a2-3)Gal(b1-3)GlcNAc
In short: as §1

[15] = molecular target: Neu5Ac9Ac(a2-3)Gal(b1-4)GlcNAc
In short: as §1

[16] = molecular target: Neu5Ac9Ac(a2-6)Gal(b1-4)GlcNAc
In short: as §1

[17] = molecular target: Neu5Gc(a2-3)Gal(b1-3)GlcNAc
In short: as §1

[18] = molecular target: Neu5Gc(a2-3)Gal(b1-3)[Fuc(a1-4)]GlcNAc
In short: as §1

Neu5Gc(a2-3)Gal(b1-4)Glc = molecular target: Neu5Gc(a2-3)Gal(b1-4)Glc
In short: as §1

[19] = molecular target: Neu5Gc(a2-3)Gal(b1-4)GlcNAc
In short: as §1

[20] = molecular target: Neu5Gc(a2-3)Gal(b1-4)GlcNAc(b1-3)Gal(b1-4)GlcNAc(b1-2)Man(a1-3)[Neu5Gc(a2-3)Gal(b1-4)GlcNAc(b1-3)Gal(b1-4)GlcNAc(b1-2)Man(a1-6)]Man(b1-4)GlcNAc(b1-4)GlcNAc
In short: as §1

[21] = molecular target: Neu5Gc(a2-3)Gal(b1-4)[Fuc(a1-3)]GlcNAc
In short: as §1

[22] = molecular target: Neu5Gc(a2-6)Gal(b1-4)GlcNAc
In short: as §1

Neu5Gc(a2-6)GalNAc = molecular target: Neu5Gc(a2-6)GalNAc
In short: as §1

[23] = molecular target: Neu5Gc(a2-8)Neu5Ac(a2-3)Gal(b1-4)GlcNAc
In short: as §1

[24] = molecular target: Neu5Gc(a2-8)Neu5Gc(a2-3)Gal(b1-4)GlcNAc
In short: as §1

[25] = molecular target: Neu5Gc(a2-8)Neu5Gc(a2-3)Gal(b1-4)GlcNAc(b1-3)Gal(b1-4)GlcNAc
In short: as §1

[26] = molecular target: Neu5Gc(a2-8)Neu5Gc(a2-6)Gal(b1-4)GlcNAc
In short: as §1

[27] = molecular target: Neu5Gc(b2-6)Gal(b1-4)GlcNAc
In short: as §1

B1: GS7807Q-bfa-507-19-507 (Bacteroides fragilis) (protein)
chain: ASCNKFDDLNTNPDAATKVTAPMLATKLILNITQQGSAKNFVYHSMLSKQIAWSENASDEQYNLFGRTDFDGYTILTNCQKMVDAANEGDKDSYAALAKFMKAYKLFYKSLEVGDIPYSDALKGEEGVQKPKYDTQKEVMRQVLEDLEEAYTLFSSGSDFDGDPIFGGDTENWKKTVVAFELKVLTHLCKKDTDADLKVKERFARLVSSGSLMTSNADNFQLVYSNKAGQLYPFYYTQNKHSDYLMMSSVIIDNLKKFNDYRMFYYASPAKAQTDKGIKDSEWDAYLSIDPSDSYSNISVLYGKGEFCLANLRYTRVPEGEPLMRLSYAEQNFILAEGAVRGWISEDASTYYKKGIEASMNFIADNTPDKEEYTHGRTITQEYIQEYLAQPVIQLSGDKEKDLEMILLQRYLASFLQHPYDAYYDYRRTGYPVLPINPSTNLNTEKNKIPTRWMYPEAEFSYNPDNANEAVQRQYNGSDDVNKLMWILQ
glycan array binding signal (z-score) (Neu5Ac(a2-8)Neu5Ac): 0.524 | glycan array binding signal (z-score) [1]: 1.17 | glycan array binding signal (z-score) [2]: -0.632 | glycan array binding signal (z-score) [3]: -0.724 | glycan array binding signal (z-score) [4]: -0.974 | glycan array binding signal (z-score) [5]: -1.18 | glycan array binding signal (z-score) [6]: 2.14 | glycan array binding signal (z-score) [7]: 0.102 | glycan array binding signal (z-score) [8]: -0.141 | glycan array binding signal (z-score) [9]: -0.185 | glycan array binding signal (z-score) [10]: 0.616 | glycan array binding signal (z-score) [11]: 1.51 | glycan array binding signal (z-score) [12]: -0.174 | glycan array binding signal (z-score) [13]: -0.954 | glycan array binding signal (z-score) (Neu5Ac(b2-6)GalNAc): -0.441 | glycan array binding signal (z-score) [14]: -0.356 | glycan array binding signal (z-score) [15]: -0.209 | glycan array binding signal (z-score) [16]: -0.972 | glycan array binding signal (z-score) [17]: -0.321 | glycan array binding signal (z-score) [18]: 0.879 | glycan array binding signal (z-score) (Neu5Gc(a2-3)Gal(b1-4)Glc): -1.1 | glycan array binding signal (z-score) [19]: -0.666 | glycan array binding signal (z-score) [20]: -0.023 | glycan array binding signal (z-score) [21]: -1.07 | glycan array binding signal (z-score) [22]: 0.462 | glycan array binding signal (z-score) (Neu5Gc(a2-6)GalNAc): -0.166 | glycan array binding signal (z-score) [23]: -0.268 | glycan array binding signal (z-score) [24]: -0.264 | glycan array binding signal (z-score) [25]: -1.65 | glycan array binding signal (z-score) [26]: 0.06 | glycan array binding signal (z-score) [27]: -0.25
